Assay results as given in PubChem BioAssay AID1347076 (National Center for Advancing Translational Sciences (NCATS), 2019).
Out of some 400,000 compounds screened, about 13,000 (3.2%) were called active. This list was built around the results that the source calls inconclusive (neither active nor inactive); the mix of calls is not that of the screen. Calls come from the whole dose curve; as a rule, active = well fitted cell-killing curve with a large enough effect; inconclusive = small, poorly fitted or top-dose-only effect, or effect the other way; inactive = flat fitted curve, though single readings scatter. Potencies beside an inconclusive call are fits to weak or partial responses and may not hold up.
% is set by controls: 0 for no effect and ±100 for the full control effect; potency is the fitted concentration of half-maximal effect.

Assay: qHTS assay for MDR1-selective chemotherapeutics: Primary screen using the drug-selected MDR subline cells KB-V1; note: nearly all actives have a fitted effect of over 60% in size
Conditions: KB-V1 MDR cells viability, CellTiter-Glo, 72 h; activity change, negative = cytotoxicity: at 46.1 µM (top of the series)
Outline: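 Cells of the MDR subline KB-V1 are plated, dosed with compound at multiple concentrations, and incubated 72 h at 37 degrees C; CellTiter-Glo is then added and luminescence read after 10 min.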
For O=C(Cc1ccc(S(=O)(=O)N2CCOCC2)s1)Nc1ccccc1N1CCOCC1, the Potency was inconclusive: 8.2 µM [cytotoxic, partial curve]. With COc1cc2c(C(=O)Nc3cc(OC)c(OC)c(OC)c3)cn(C)c(=O)c2cc1OC the Potency was inconclusive: 25.9 µM [rising, single point]. For COCC(=O)N1CCCC(C(=O)c2ccc(Oc3ccccc3)cc2)C1 (configuration not stated), the Potency was inconclusive: 20.6 µM [cytotoxic, single point]. With O=C(CSC(=S)N1CCCCC1)Nc1nc(-c2ccccc2)c(-c2ccccc2)o1 the Potency was active: 23.1 µM. In the case of O=C(N/N=C/c1cc([N+](=O)[O-])ccc1O)NC12CC3CC(CC(C3)C1)C2, the Potency is reported as “inactive”. In the case of O=C(O)c1cc(O)c2c(c1)[C@H]([C@H]1c3cc(C(=O)O)cc(O)c3C(=O)c3c(O[C@@H]4O[C@H](CO)[C@@H](O)[C@H](O)[C@H]4O)cccc31)c1cccc(OC3O[C@H](CO)[C@@H](O)[C@H](O)[C@H]3O)c1C2=O (some centres not stated), the Potency is reported as “inactive”. With Cc1cc(NC(=O)C2C3C(=O)N(CCC(C)C)C(C(=O)NCc4ccccc4)C34C=CC2(C)O4)no1 (configuration not stated) the Potency was inconclusive: 8.2 µM [rising, partial curve]. With Cc1cccc2sc(NS(C)(=O)=O)nc12 the Potency was “inactive”. In the case of Cc1cc2c(NC(=O)Nc3ccccc3)cccc2nn1, the Potency is reported as inconclusive: 6.51 µM [cytotoxic, full curve, poor fit]. With COc1ccc(/C(O)=C2/C(=O)C(=O)N(c3ccccn3)C2c2cccc(Cl)c2)cc1 (configuration not stated) the Potency was “inactive”. For CN(C)S(=O)(=O)c1cccc(COC(=O)CN2C(=O)NC3(CCCC3)C2=O)c1, the Potency was “inactive”. In the case of COc1ccc(OC)c(S(=O)(=O)Nc2ccc3oc4c(c3c2)C(=O)CCC4)c1, the Potency is reported as active: 23.1 µM. With NC(=O)NOCc1ccc(Cl)cc1Cl the Potency was inconclusive: 13 µM [cytotoxic, partial curve]. With CN1/C(=C\C(=O)COC(=O)CNC(=O)c2ccccc2F)C(C)(C)c2ccccc21 the Potency was “inactive”. In the case of Cc1cc(O)c(C(c2cccc(F)c2)N2CCN(c3ccccc3)CC2)c(=O)n1Cc1ccco1 (configuration not stated), the Potency is reported as “inactive”. In the case of N#Cc1cnn(-c2ncnc3sc4c(c23)CCCC4)c1N, the Potency is reported as inconclusive: 8.2 µM [cytotoxic, partial curve, poor fit]. In the case of CCc1ccc(-c2c(C)sc(NC(C)=O)c2C(N)=O)cc1, the Potency is reported as “inactive”. For CN(c1ccccc1)S(=O)(=O)c1ccc(NC(=O)c2nc(S(C)(=O)=O)ncc2Cl)cc1, the Potency was inconclusive: 18.4 µM [cytotoxic, single point]. In the case of Cc1nc2nc(C)n(CCN3CCOCC3)c(=O)c2c(-c2cccc([N+](=O)[O-])c2)c1C(=O)CCCCCCCCCCN1CCC(c2ccccc2)(c2ccccc2)CC1, the Potency is reported as active: 7.31 µM. In the case of CCN1CCN(CCNC(=O)c2ccc3c(c2)N(Cc2ccc(F)cc2)C(=O)c2ccccc2S3=O)CC1 (configuration not stated), the activity change, negative = cytotoxicity is reported as inconclusive: -8.08%. For COc1ccccc1CN1CC(C(=O)NCCc2ccc(C)o2)CCC1=O (configuration not stated), the Potency was inconclusive: 29.1 µM [rising, single point]. For CCOc1ccccc1NC(=O)c1cccc(S(=O)(=O)N(Cc2ccccc2)c2ccccc2OC)c1, the Potency was active: 8.2 µM. With CC(C)=CCCC(C)CN1CCC(N2CCC(C(=O)NC(C)C)CC2)CC1 (configuration not stated) the Potency was inconclusive: 10.3 µM [cytotoxic, single point]. With O=C(CSc1nc(C2CCCCC2)nc2ccccc12)NCc1ccco1 the Potency was inconclusive: 20.6 µM [cytotoxic, single point]. In the case of CC1(C(=O)Nc2ccc(Cl)c(C(F)(F)F)c2)Cc2c(-c3ccc4c(c3)OCO4)ccnc2O1 (configuration not stated), the Potency is reported as inconclusive: 29.1 µM [cytotoxic, single point]. In the case of O=[N+]([O-])c1cc(S(=O)(=O)Nc2ccccc2)ccc1N1CCN(c2ccccc2)CC1, the Potency is reported as inconclusive: 20.6 µM [cytotoxic, single point]. With O=C(c1ccco1)c1nnn(Cc2ccccc2)c1-c1ccccc1 the Potency was active: 23.1 µM. For CC(=O)Nc1ccc(S(=O)(=O)N2CCN(C(C)CCc3ccccc3)CC2)cc1 (configuration not stated), the Potency was “inactive”. With C=CCSC1=N/C(=C\c2cccnc2)C(=O)N1c1ccc(OC)cc1 the Potency was inconclusive: 20.6 µM [cytotoxic, partial curve]. For COc1ccc(Cl)cc1Cn1c(C)c(C(=O)NCc2ccc(C#N)cc2)sc1=O, the Potency was inconclusive: 9.2 µM [cytotoxic, partial curve, poor fit]. With Cc1ccc(Nc2nc(NCc3ccco3)c3ccccc3n2)cc1 the Potency was inconclusive: 4.11 µM [cytotoxic, full curve]. For Cn1cc(CN2CCC(C(=O)NC(c3ccc(F)cc3)c3ccc4ccccc4n3)CC2)c2ccccc21 (configuration not stated), the Potency was inconclusive: 29.1 µM [cytotoxic, single point]. With Cc1ccccc1OCC(O)Cn1c2ccccc2c2ccccc21 (configuration not stated) the Potency was active: 20.6 µM. In the case of Clc1cccc(CON/C=N/c2ncnc3sccc23)c1, the Potency is reported as inconclusive: 4.11 µM [cytotoxic, partial curve, poor fit]. In the case of OCCC1CN(Cc2nc(-c3ccccc3)cs2)CCN1Cc1ccc(F)cc1 (configuration not stated), the Potency is reported as active: 9.2 µM. For COCCN1C(=O)CCC1(C)C(=O)Nc1c(C)cccc1C (configuration not stated), the Potency was inconclusive: 29.1 µM [cytotoxic, single point]. For Cc1cc(NC(=O)CSc2nc3cc(C(=O)NCCCOC(C)C)ccc3c(=O)n2Cc2ccco2)no1, the Potency was “inactive”. In the case of COc1ccc(CN2C(=O)CCCC2(C)c2nc3ccccc3[nH]2)cc1 (configuration not stated), the Potency is reported as inconclusive: 29.1 µM [rising, single point]. For N=c1c2ccccc2nc2n1CCCCCCCCCCC2, the Potency was inconclusive: 6.51 µM [cytotoxic, full curve]. For CC(C)C(=O)NC(=S)Nc1ccc(S(=O)(=O)Nc2ccccc2)cc1, the Potency was active: 23.1 µM. With O=C(O)c1ccccc1NS(=O)(=O)c1cccc(N=Nc2c(O)[nH]c(=S)[nH]c2=O)c1 the Potency was “inactive”. With Cc1cccc(NC(=O)Cn2cc(C(=O)C3CCCCC3)c3ccccc32)c1 the Potency was “inactive”. For COc1cc2nc(NCCCN3CCN(C)CC3)n3nc(-c4ccccc4)nc3c2cc1OC, the Potency was inconclusive: 0.411 µM [cytotoxic, full curve]. With Cc1ccc(C(=O)N2CCN(S(=O)(=O)c3ccc(C)c([N+](=O)[O-])c3)C2)cc1 the Potency was inconclusive: 29.1 µM [cytotoxic, single point]. With COc1ccc(CNC(=O)c2ccc(Cl)c(NC3=NC4CS(=O)(=O)CC4S3)c2)cc1 (configuration not stated) the Potency was inconclusive: 29.1 µM [rising, single point]. For CC1(C)Cc2c(sc(NC(=O)c3ccc(C(=O)c4ccccc4)cc3)c2C(N)=O)C(C)(C)N1, the Potency was inconclusive: 0.58 µM [cytotoxic, full curve, poor fit]. For O=C(C1CCC(CNS(=O)(=O)c2cccc3nsnc23)CC1)N1CCN(c2ccccn2)CC1 (configuration not stated), the Potency was active: 18.4 µM. With CCC(CNc1cc(OC)cc2cccnc12)NC1CCCCC1 (configuration not stated) the Potency was “inactive”. With CCOC(=O)[C@]12CCCC=C1N(CCC1=CCCCC1)C(=O)[C@H](CC(=O)N1CCSCC1)C2 the Potency was inconclusive: 6.51 µM [cytotoxic, partial curve]. In the case of CC(C)(C)c1ccc(-c2nc(C#N)c(NCCCn3ccnc3)o2)cc1, the Potency is reported as inconclusive: 5.17 µM [cytotoxic, partial curve]. In the case of CSc1ccc(CCNC(=O)NCc2noc3ccccc23)cc1, the Potency is reported as “inactive”. In the case of CCN(CC)C(=O)c1cccc(-c2csc(C(O)c3ccc(F)c(OC)c3)n2)c1 (configuration not stated), the Potency is reported as inconclusive: 5.8 µM [cytotoxic, full curve, poor fit]. With COc1ccc(-c2ocnc2C(=O)N2CCN(C(=O)C(c3ccccc3)c3ccccc3)CC2)cc1 the Potency was inconclusive: 7.31 µM [cytotoxic, partial curve, poor fit]. With CO/N=C/c1ccc(N2CCN(C(=O)c3cccc(Cl)c3)CC2)c([N+](=O)[O-])c1 the Potency was inconclusive: 13 µM [cytotoxic, partial curve]. In the case of COc1cc2c(-c3cccc(Cl)c3)nc3c(c(C)nn3-c3ccccc3)c2cc1OC, the Potency is reported as inconclusive: 0.0231 µM [rising, full curve]. For COc1cc2c(cc1OC)C(C(C)C)=NC(C)(C)C2, the Potency was inconclusive: 23.1 µM [rising, single point]. In the case of O=C(O)C1(S(=O)(=O)c2ccc(Cl)cc2)CCC1, the Potency is reported as inconclusive: 10.3 µM [rising, partial curve, poor fit]. In the case of CC(C)NC(=S)N/N=C1\CCCCc2ccccc21, the Potency is reported as “inactive”. In the case of S=c1[nH]cnc2sc(Nc3ccccc3)nc12, the Potency is reported as “inactive”. With COC(=O)c1ccc(COC(=O)C(CCS(C)(=O)=O)N2C(=O)c3ccccc3C2=O)cc1 (configuration not stated) the Potency was inconclusive: 11.6 µM [rising, partial curve]. In the case of O=C(NCCN1CCNC1=O)C1CCC(=O)N(CCc2ccc(Cl)cc2)C1 (configuration not stated), the Potency is reported as inconclusive: 29.1 µM [rising, single point]. For CC(C)(C)C(=O)Nc1ccccc1C(=O)NCCC(=O)Nc1ccccc1, the Potency was “inactive”. For C=CCN(C(=O)c1cccc(N2C(=O)C3CC=CC(C)C3C2=O)c1)c1ccccc1 (configuration not stated), the Potency was inconclusive: 18.4 µM [cytotoxic, single point]. In the case of CCOC(=O)C1=NOC2(C1)C(=O)Nc1ccc(OC(F)(F)F)cc12 (configuration not stated), the Potency is reported as “inactive”. For O=C(NCC(=O)N1CCC2(CC1)NCCc1[nH]cnc12)c1cccc(Cl)c1, the Potency was inconclusive: 29.1 µM [rising, single point]. In the case of c1cc2c3c(cccc3c1)C(N1CCOCC1)=N2, the Potency is reported as inconclusive: 29.1 µM [cytotoxic, single point]. With Cc1cc(NC(=O)CCN2CCN(C/C=C/c3ccccc3)CC2)ccc1Br the Potency was inconclusive: 3.66 µM [cytotoxic, full curve].
